No constants are given. Whether binding was seen depends on the method and setting. In cells and extracts the contact can be indirect. Some results given as binding are weak or reduced against the parent protein; the word gives no strength.
Biological target: Sequestosome 1 (human (endogenous in HUVECs)) (UniProt Q13501)
Experiment: co-IP; whole-cell lysates of HUVECs in native lysis buffer with protease inhibitors; specific antibodies 12 h at 4 °C, Protein A+G agarose beads 4 h at 4 °C; Western blot; cells untreated or treated with Neu5Ac (20 mM) for 24 h

binding: binds
Substance: Cystine/glutamate anti-porter solute carrier family 3 member 2 (from UniProt P08195 1-529)
